These are yes or no findings as the source states them, for the method shown. In cells and extracts the contact can be indirect. Some results given as binding are weak or reduced against the parent protein; the word gives no strength.
Biological target: Myosin phosphatase rho-interacting protein (MPRIP) (human (endogenous in HeLa)) (UniProt Q6WCQ1)
Experiment: co-IP; 1 mg HeLa nuclear lysate with 2 µg anti-MPRIP antibody at 4 °C overnight, G-protein magnetic beads 1 h at 4 °C, 5 washes (150 mM NaCl, 1.0% NP-40, 50 mM Tris pH 7.4, 1 mM DTT), Western blot; control non-specific rabbit IgG

Sequences of proteins named here, by UniProt entry; tags and fusion partners are left off. A change or cut given only in a name is not applied to a line headed by its entry. A line that says so, or that is headed by a name, gives the form on record, which may keep a tag or linker.
UniProt Q6WCQ1: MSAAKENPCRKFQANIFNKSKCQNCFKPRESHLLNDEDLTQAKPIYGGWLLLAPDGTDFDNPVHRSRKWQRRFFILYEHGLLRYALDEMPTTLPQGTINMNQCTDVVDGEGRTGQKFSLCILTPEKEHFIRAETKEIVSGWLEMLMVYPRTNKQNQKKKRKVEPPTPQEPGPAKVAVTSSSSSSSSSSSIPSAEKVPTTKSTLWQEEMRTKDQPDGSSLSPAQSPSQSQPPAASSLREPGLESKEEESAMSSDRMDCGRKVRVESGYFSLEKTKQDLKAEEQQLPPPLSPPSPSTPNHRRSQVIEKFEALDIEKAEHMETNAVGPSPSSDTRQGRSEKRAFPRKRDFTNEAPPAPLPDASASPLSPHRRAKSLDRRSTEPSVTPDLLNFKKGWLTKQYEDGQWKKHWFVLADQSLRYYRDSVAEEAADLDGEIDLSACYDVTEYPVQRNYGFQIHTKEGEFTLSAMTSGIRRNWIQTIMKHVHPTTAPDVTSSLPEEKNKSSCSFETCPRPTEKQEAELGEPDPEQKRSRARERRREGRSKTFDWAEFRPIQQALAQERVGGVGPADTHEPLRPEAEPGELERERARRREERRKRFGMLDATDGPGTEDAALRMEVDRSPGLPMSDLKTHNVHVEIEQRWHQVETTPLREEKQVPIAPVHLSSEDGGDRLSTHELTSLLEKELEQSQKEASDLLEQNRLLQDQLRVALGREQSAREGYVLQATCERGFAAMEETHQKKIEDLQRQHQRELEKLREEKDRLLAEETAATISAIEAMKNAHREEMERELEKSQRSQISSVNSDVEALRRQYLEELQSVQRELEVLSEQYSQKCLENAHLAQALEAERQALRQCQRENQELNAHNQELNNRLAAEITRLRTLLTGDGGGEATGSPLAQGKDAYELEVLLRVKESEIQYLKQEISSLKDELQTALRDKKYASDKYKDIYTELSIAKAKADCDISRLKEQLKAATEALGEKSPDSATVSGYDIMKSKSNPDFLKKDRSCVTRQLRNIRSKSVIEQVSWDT
MYO1C (unconventional myosin; Nuclear Myosin 1 is an isoform of it) (O00159-3, form named): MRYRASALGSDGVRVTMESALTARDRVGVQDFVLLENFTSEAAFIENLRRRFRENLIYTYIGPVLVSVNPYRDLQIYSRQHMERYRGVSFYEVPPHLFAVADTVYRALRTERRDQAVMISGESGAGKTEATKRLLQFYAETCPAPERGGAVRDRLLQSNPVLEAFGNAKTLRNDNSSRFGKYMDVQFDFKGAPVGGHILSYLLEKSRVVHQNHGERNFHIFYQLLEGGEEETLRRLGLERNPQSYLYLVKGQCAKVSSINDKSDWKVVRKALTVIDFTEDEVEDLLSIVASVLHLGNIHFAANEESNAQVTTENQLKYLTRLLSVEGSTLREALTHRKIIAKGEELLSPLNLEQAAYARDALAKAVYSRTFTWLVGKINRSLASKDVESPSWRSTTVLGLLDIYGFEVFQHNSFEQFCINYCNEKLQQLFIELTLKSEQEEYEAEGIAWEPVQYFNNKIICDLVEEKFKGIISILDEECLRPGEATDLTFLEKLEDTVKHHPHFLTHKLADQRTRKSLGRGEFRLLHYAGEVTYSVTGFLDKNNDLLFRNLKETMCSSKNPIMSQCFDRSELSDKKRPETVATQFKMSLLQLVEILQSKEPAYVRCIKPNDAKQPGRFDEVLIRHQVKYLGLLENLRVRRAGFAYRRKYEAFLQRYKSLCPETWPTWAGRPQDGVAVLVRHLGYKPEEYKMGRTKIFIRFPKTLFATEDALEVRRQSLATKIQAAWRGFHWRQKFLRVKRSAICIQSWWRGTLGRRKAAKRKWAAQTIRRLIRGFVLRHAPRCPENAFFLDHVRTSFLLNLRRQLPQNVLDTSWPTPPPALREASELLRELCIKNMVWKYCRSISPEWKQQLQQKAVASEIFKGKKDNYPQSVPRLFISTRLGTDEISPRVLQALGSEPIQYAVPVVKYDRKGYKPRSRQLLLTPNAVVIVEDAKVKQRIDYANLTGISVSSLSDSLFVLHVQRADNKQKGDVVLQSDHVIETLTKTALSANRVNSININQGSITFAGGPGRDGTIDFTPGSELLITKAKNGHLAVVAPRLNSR

binding: binds
Substance: MYO1C (unconventional myosin; Nuclear Myosin 1 is an isoform of it) (from UniProt O00159-3 1-1044)
